From PMC4735476, “Dataset concerning GroEL chaperonin interaction with proteins” (Data in Brief, 2016)
No constants are given. Whether binding was seen depends on the method and setting. Some entries that bind do so weakly or less than the wild type.

Chains of the proteins cited; added tags and fusions are not shown. Residues count along the entry.
UniProt P00791, residues 60-385: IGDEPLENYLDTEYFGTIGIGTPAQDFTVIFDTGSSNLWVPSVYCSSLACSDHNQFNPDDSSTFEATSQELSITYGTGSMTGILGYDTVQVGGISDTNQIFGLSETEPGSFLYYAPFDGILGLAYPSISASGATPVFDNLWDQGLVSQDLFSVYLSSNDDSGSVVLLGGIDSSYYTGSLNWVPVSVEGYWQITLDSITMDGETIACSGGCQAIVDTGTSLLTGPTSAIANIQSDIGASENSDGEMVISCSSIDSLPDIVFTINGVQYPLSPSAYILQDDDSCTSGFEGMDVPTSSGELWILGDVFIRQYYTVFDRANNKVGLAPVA
UniProt P0A6F5: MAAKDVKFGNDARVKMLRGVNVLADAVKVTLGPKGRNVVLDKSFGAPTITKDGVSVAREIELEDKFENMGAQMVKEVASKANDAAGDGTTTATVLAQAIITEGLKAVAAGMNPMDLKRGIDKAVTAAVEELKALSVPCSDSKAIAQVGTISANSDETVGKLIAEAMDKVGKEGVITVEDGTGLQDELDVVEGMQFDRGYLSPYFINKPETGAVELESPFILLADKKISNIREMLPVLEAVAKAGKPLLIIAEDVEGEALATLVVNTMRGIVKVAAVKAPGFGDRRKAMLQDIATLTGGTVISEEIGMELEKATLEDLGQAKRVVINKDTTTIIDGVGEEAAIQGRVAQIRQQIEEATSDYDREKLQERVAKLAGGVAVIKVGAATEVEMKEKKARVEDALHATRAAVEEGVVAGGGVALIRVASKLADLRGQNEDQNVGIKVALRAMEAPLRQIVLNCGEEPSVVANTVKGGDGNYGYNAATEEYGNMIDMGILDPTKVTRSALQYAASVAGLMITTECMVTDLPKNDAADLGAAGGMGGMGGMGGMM

What was measured:
[1] = molecular target: pepsin from porcine gastric mucosa, covalently immobilized to BrCN-Sepharose (porcine) (UniProt P00791); test: condition: only at a low ionic strength (20 mM Tris–HCl); affinity chromatography; denatured pepsin immobilized on BrCN-Sepharose (2 ml sorbent); GroEL loaded in 20 mM Tris–HCl, pH 7.5 (low ionic strength); elution with 8 M urea; fractions read by SDS gel electrophoresis and ATPase activity; both purified
[2] = molecular target: pepsin from porcine gastric mucosa, covalently immobilized to BrCN-Sepharose (porcine) (UniProt P00791); test: affinity chromatography; denatured pepsin immobilized on BrCN-Sepharose (2 ml sorbent); GroEL loaded in 20 mM Tris–HCl, pH 7.5, 300 mM NaCl, 10 mM MgCl2; elution with 20 mM Tris–HCl, pH 7.5; fractions read by SDS gel electrophoresis and ATPase activity; both purified
[3] = molecular target: T1, fluorescein-labeled human α-lactalbumin (human) (UniProt P00709); test: condition: only native state at a low ionic strength (20 mM Tris–HCl, pH 7.5); fluorescence polarisation; 30×10^-9 M native fluorescein-labeled protein titrated with GroEL at a low ionic strength (20 mM Tris–HCl, pH 7.5); fluorescence anisotropy, excitation 490 nm, emission 520 nm; apparent constant, counted on GroEL cavities (doubled GroEL concentration); both purified
T1 sequence (chain, fluorescein label (fluorescein isothiocyanate), position not stated): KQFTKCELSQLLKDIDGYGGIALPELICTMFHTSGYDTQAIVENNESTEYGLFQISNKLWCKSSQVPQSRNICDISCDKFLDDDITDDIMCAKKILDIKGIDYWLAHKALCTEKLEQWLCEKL

Substance: GroEL chaperonin (from UniProt P0A6F5 1-548)
- binding [1]: no binding
- binding [2]: binds
- binding [3]: no binding
